In the supplement of paper PMC4604168 (melanoma cell lines):
This is one part of the list. Many values rest on one well or one pass, so single values are uncertain.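 The apoptosis fraction was the count of cleaved-PARP antibody-stained nuclei relative to all DNA-stained nuclei, imaged in 1,536-well plates. Screening doses were set so most cells survived, and baseline and induced cleaved-PARP levels vary greatly across cell lines.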

Legend:
Assay in all cases: cleaved PARP positive nuclei fraction relative to DMSO control; melanoma cells; higher = more apoptosis
Conditions in all cases: library dose: low library concentration; 72 h
501Mel = system: 501Mel
A101D = system: A101D
A2058 = system: A2058
A375 = system: A375
C32 = system: C32
CBRC013 = system: CBRC013 (line from a melanoma biopsy)
CBRC014 = system: CBRC014 (line from a melanoma biopsy)
CBRC016 = system: CBRC016 (line from a melanoma biopsy)
CBRC017 = system: CBRC017 (line from a melanoma biopsy)

SMILES: COc1cc2ncnc(Nc3ccc(Oc4ccccc4)cc3)c2cc1OC + Cn1cc(/C=C2\C(=O)Nc3cccnc32)c2ccccc21 [GW441756] (first compound 2 µM, partner dose 0.4 µM)
- cleaved PARP positive nuclei fraction (501Mel): 72.8%
- cleaved PARP positive nuclei fraction (A101D): 258%
- cleaved PARP positive nuclei fraction (A2058): 132%
- cleaved PARP positive nuclei fraction (A375): 146%
- cleaved PARP positive nuclei fraction (C32): 185%
- cleaved PARP positive nuclei fraction (CBRC013): 48.7%
- cleaved PARP positive nuclei fraction (CBRC014): 101%
- cleaved PARP positive nuclei fraction (CBRC016): 135%
- cleaved PARP positive nuclei fraction (CBRC017): 67.2%

SMILES: O=C(O)C(=O)Nc1sc2c(c1C(=O)O)CCNC2 + O=C1NC(=O)/C(=C/c2ccc(-c3ccc(F)cc3O)o2)S1 [AS252424] (first compound 1.66667 µM, partner dose 1 µM)
- cleaved PARP positive nuclei fraction (501Mel): 145%
- cleaved PARP positive nuclei fraction (A101D): 52.5%
- cleaved PARP positive nuclei fraction (A2058): 62.3%
- cleaved PARP positive nuclei fraction (A375): 133%
- cleaved PARP positive nuclei fraction (C32): 182%
- cleaved PARP positive nuclei fraction (CBRC013): 238%
- cleaved PARP positive nuclei fraction (CBRC014): 139%
- cleaved PARP positive nuclei fraction (CBRC016): 42.1%
- cleaved PARP positive nuclei fraction (CBRC017): 145%

SMILES: N#Cc1c(O)c2c(-c3ccc(-c4ccccc4O)cc3)csc2[nH]c1=O + O=C1NC(=O)/C(=C/c2ccc(-c3ccc(F)cc3O)o2)S1 [AS252424] (first compound 2 µM, partner dose 1 µM)
- cleaved PARP positive nuclei fraction (501Mel): 139%
- cleaved PARP positive nuclei fraction (A101D): 78.2%
- cleaved PARP positive nuclei fraction (A2058): 112%
- cleaved PARP positive nuclei fraction (A375): 182%
- cleaved PARP positive nuclei fraction (C32): 31.9%
- cleaved PARP positive nuclei fraction (CBRC013): 74.3%
- cleaved PARP positive nuclei fraction (CBRC014): 103%
- cleaved PARP positive nuclei fraction (CBRC016): 73.6%
- cleaved PARP positive nuclei fraction (CBRC017): 70.2%

SMILES: COc1ccc(-c2ccc3c(N4CCOCC4)nc(N4C[C@@H](C)O[C@@H](C)C4)nc3n2)cc1CO + Cc1cc([N+](=O)[O-])ccc1NS(=O)(=O)c1cc(Cl)ccc1Cl [FH535] (first compound 0.02 µM, partner dose 1 µM)
- cleaved PARP positive nuclei fraction (501Mel): 35.8%
- cleaved PARP positive nuclei fraction (A101D): 46.8%
- cleaved PARP positive nuclei fraction (A2058): 117%
- cleaved PARP positive nuclei fraction (A375): 348%
- cleaved PARP positive nuclei fraction (C32): 252%
- cleaved PARP positive nuclei fraction (CBRC013): 123%
- cleaved PARP positive nuclei fraction (CBRC014): 220%
- cleaved PARP positive nuclei fraction (CBRC016): 829%
- cleaved PARP positive nuclei fraction (CBRC017): 237%

SMILES: COc1ccc(COc2ccc(Cc3cnc(N)nc3N)cc2OC)cc1 + CC(C)CCN1c2nc(Nc3cc(F)c(O)c(F)c3)ncc2N(C)C(=O)C1C [BID1870] (first compound 1 µM, partner dose 0.2 µM)
- cleaved PARP positive nuclei fraction (501Mel): 86%
- cleaved PARP positive nuclei fraction (A101D): 162%
- cleaved PARP positive nuclei fraction (A2058): 99.7%
- cleaved PARP positive nuclei fraction (A375): 138%
- cleaved PARP positive nuclei fraction (C32): 44.7%
- cleaved PARP positive nuclei fraction (CBRC013): 372%
- cleaved PARP positive nuclei fraction (CBRC014): 106%
- cleaved PARP positive nuclei fraction (CBRC016): 81.8%
- cleaved PARP positive nuclei fraction (CBRC017): 86%

SMILES: CN(NC(=O)CC(=O)NN(C)C(=S)c1ccccc1)C(=S)c1ccccc1 + COc1cc2ncnc(Nc3ccc(Oc4ccccc4)cc3)c2cc1OC [SrcI1] (first compound 0.006 µM, partner dose 2 µM)
- cleaved PARP positive nuclei fraction (501Mel): 691%
- cleaved PARP positive nuclei fraction (A101D): 112%
- cleaved PARP positive nuclei fraction (A2058): 144%
- cleaved PARP positive nuclei fraction (A375): 2860%
- cleaved PARP positive nuclei fraction (C32): 82%
- cleaved PARP positive nuclei fraction (CBRC013): 163%
- cleaved PARP positive nuclei fraction (CBRC014): 612%
- cleaved PARP positive nuclei fraction (CBRC016): 154%
- cleaved PARP positive nuclei fraction (CBRC017): 160%

SMILES: COc1ccc(-c2ccc3c(N4CCOCC4)nc(N4C[C@@H](C)O[C@@H](C)C4)nc3n2)cc1CO + O=S(=O)(c1ccccc1)N(CC(F)(F)F)c1ccc(C(O)(C(F)(F)F)C(F)(F)F)cc1 [T0901317] (first compound 0.02 µM, partner dose 1.4 µM)
- cleaved PARP positive nuclei fraction (501Mel): 86.7%
- cleaved PARP positive nuclei fraction (A101D): 123%
- cleaved PARP positive nuclei fraction (A2058): 116%
- cleaved PARP positive nuclei fraction (A375): 225%
- cleaved PARP positive nuclei fraction (C32): 93.9%
- cleaved PARP positive nuclei fraction (CBRC013): 96%
- cleaved PARP positive nuclei fraction (CBRC014): 90.7%
- cleaved PARP positive nuclei fraction (CBRC016): 71.7%
- cleaved PARP positive nuclei fraction (CBRC017): 48.5%

SMILES: O=C(Nc1ccccc1)c1cc([N+](=O)[O-])ccc1Cl + COc1cc2ncnc(Nc3ccc(Oc4ccccc4)cc3)c2cc1OC [SrcI1] (first compound 2 µM, partner dose 2 µM)
- cleaved PARP positive nuclei fraction (501Mel): 86.2%
- cleaved PARP positive nuclei fraction (A101D): 107%
- cleaved PARP positive nuclei fraction (A2058): 80%
- cleaved PARP positive nuclei fraction (A375): 86.9%
- cleaved PARP positive nuclei fraction (C32): 100%
- cleaved PARP positive nuclei fraction (CBRC013): 17.9%
- cleaved PARP positive nuclei fraction (CBRC014): 90.1%
- cleaved PARP positive nuclei fraction (CBRC016): 73.1%
- cleaved PARP positive nuclei fraction (CBRC017): 88%

SMILES: CCc1ccc(CCOc2ccc(CC3SC(=O)NC3=O)cc2)nc1 (stereo not drawn) [pioglitazone] + O=C(Nc1ccccc1)c1cc([N+](=O)[O-])ccc1Cl [GW9662] (first compound 2 µM, partner dose 2 µM)
- cleaved PARP positive nuclei fraction (501Mel): 158%
- cleaved PARP positive nuclei fraction (A101D): 129%
- cleaved PARP positive nuclei fraction (A2058): 77.5%
- cleaved PARP positive nuclei fraction (A375): 124%
- cleaved PARP positive nuclei fraction (C32): 126%
- cleaved PARP positive nuclei fraction (CBRC013): 50.7%
- cleaved PARP positive nuclei fraction (CBRC014): 84.6%
- cleaved PARP positive nuclei fraction (CBRC016): 105%
- cleaved PARP positive nuclei fraction (CBRC017): 175%

SMILES: COC(=O)c1sccc1S(=O)(=O)Nc1ccc(Nc2ccccc2)cc1OC + O=S(=O)(c1ccccc1)N(CC(F)(F)F)c1ccc(C(O)(C(F)(F)F)C(F)(F)F)cc1 [T0901317] (first compound 1 µM, partner dose 1.4 µM)
- cleaved PARP positive nuclei fraction (501Mel): 94.5%
- cleaved PARP positive nuclei fraction (A101D): 59.5%
- cleaved PARP positive nuclei fraction (A2058): 134%
- cleaved PARP positive nuclei fraction (A375): 139%
- cleaved PARP positive nuclei fraction (C32): 91.2%
- cleaved PARP positive nuclei fraction (CBRC013): 77.3%
- cleaved PARP positive nuclei fraction (CBRC014): 87.1%
- cleaved PARP positive nuclei fraction (CBRC016): 83.7%
- cleaved PARP positive nuclei fraction (CBRC017): 86.4%

SMILES: Oc1nc(-c2ccc(C(F)(F)F)cc2)nc2c1CSCC2 + O=c1cc(-c2cccc3c2Sc2ccccc2S3)oc(N2CCOCC2)c1 [KU55933] (first compound 2 µM, partner dose 1 µM)
- cleaved PARP positive nuclei fraction (501Mel): 111%
- cleaved PARP positive nuclei fraction (A101D): 54.8%
- cleaved PARP positive nuclei fraction (A2058): 68.1%
- cleaved PARP positive nuclei fraction (A375): 75.3%
- cleaved PARP positive nuclei fraction (C32): 64.5%
- cleaved PARP positive nuclei fraction (CBRC013): 45.6%
- cleaved PARP positive nuclei fraction (CBRC014): 156%
- cleaved PARP positive nuclei fraction (CBRC016): 90.9%
- cleaved PARP positive nuclei fraction (CBRC017): 102%

SMILES: Cc1cc([N+](=O)[O-])ccc1NS(=O)(=O)c1cc(Cl)ccc1Cl + c1cc(-c2cnn3cc(-c4ccc(OCCN5CCCCC5)cc4)cnc23)ccn1 [Dorsomorphin] (first compound 1 µM, partner dose 0.4 µM)
- cleaved PARP positive nuclei fraction (501Mel): 29.5%
- cleaved PARP positive nuclei fraction (A101D): 242%
- cleaved PARP positive nuclei fraction (A2058): 102%
- cleaved PARP positive nuclei fraction (A375): 840%
- cleaved PARP positive nuclei fraction (C32): 172%
- cleaved PARP positive nuclei fraction (CBRC013): 99.1%
- cleaved PARP positive nuclei fraction (CBRC014): 219%
- cleaved PARP positive nuclei fraction (CBRC016): 1680%
- cleaved PARP positive nuclei fraction (CBRC017): 788%
